Test results reported in publication PMC12382147.
No constants are given. Whether binding was seen depends on the method and setting. In cells and extracts the contact can be indirect. These calls come from enrichment with a bait or labelling near it, and not all partners need be listed. Where a sequence is shown, tags or fusion partners need not be part of it.

Amino acid sequences for entries named in this document (tags omitted).
UniProt Q9UNE7: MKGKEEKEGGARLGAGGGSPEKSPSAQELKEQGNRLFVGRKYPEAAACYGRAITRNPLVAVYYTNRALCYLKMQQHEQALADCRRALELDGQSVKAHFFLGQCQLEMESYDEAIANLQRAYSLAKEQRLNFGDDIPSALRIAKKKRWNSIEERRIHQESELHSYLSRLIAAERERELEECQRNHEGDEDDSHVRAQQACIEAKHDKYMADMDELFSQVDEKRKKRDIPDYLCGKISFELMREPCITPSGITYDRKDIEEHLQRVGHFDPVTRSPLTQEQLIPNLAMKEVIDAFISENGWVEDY
UniProt Q13263: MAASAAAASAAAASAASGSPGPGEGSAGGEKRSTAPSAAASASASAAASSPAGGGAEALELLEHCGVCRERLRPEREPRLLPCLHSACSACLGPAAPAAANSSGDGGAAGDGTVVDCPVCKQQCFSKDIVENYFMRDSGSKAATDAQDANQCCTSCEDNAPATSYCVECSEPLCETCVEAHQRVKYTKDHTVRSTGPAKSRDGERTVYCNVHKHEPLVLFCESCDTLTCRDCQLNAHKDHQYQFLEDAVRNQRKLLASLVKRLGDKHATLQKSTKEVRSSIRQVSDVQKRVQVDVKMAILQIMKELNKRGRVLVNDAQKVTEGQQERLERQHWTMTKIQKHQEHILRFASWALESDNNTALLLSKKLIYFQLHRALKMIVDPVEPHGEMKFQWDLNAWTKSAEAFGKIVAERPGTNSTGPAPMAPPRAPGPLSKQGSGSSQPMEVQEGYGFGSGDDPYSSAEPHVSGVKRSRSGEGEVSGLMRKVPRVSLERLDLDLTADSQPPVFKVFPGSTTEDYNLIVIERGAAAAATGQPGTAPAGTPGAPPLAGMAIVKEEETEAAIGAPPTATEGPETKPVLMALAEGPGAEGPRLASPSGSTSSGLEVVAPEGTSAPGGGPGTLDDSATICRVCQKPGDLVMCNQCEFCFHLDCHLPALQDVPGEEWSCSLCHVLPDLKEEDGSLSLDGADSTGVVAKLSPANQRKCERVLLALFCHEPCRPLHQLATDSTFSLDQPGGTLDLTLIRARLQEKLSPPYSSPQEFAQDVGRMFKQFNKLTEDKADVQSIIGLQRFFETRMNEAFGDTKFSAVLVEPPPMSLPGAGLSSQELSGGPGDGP

T1: Flag-TPIT (UniProt O60806)
T1 sequence: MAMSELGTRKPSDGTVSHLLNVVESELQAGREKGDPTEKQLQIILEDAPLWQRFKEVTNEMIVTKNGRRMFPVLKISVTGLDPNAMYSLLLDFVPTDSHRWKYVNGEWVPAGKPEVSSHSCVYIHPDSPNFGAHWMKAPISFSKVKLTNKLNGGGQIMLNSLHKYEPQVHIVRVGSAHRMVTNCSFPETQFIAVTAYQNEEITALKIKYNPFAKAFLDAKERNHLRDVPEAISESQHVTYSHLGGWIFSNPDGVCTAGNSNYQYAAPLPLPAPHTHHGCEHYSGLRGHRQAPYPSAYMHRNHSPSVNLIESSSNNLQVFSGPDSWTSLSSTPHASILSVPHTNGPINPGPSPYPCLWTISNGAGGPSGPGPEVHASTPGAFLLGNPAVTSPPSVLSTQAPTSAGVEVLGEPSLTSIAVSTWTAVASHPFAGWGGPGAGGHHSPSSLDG


Target: T1, Flag-TPIT
Experiment: affinity purification with mass spectrometry; Flag-TPIT immunoprecipitated on anti-DYKDDDDK affinity beads from transfected HEK-293T cells and from adenovirus-infected primary corticotroph tumor cells; Triton X-100 lysis buffer (150 mM NaCl, 50 mM Tris, 1% Triton X-100, pH 7.5)

binding	Molecule
binds	STIP1 Homology and U-Box Containing Protein 1 (STUB1), endogenous, human cells (from UniProt Q9UNE7 1-303) (enzyme)
binds	Tripartite motif-containing protein 28 (TRIM28), endogenous (from UniProt Q13263 1-835) (enzyme)
binds	PLRG1, endogenous (protein, UniProt O43660 1-514) MVEEVQKHSVHTLVFRSLKRTHDMFVADNGKPVPLDEESHKRKMAIKLRNEYGPVLHMPTSKENLKEKGPQNATDSYVHKQYPANQGQEVEYFVAGTHPYPPGPGVALTADTKIQRMPSESAAQSLAVALPLQTKADANRTAPSGSEYRHPGASDRPQPTAMNSIVMETGNTKNSALMAKKAPTMPKPQWHPPWKLYRVISGHLGWVRCIAVEPGNQWFVTGSADRTIKIWDLASGKLKLSLTGHISTVRGVIVSTRSPYLFSCGEDKQVKCWDLEYNKVIRHYHGHLSAVYGLDLHPTIDVLVTCSRDSTARIWDVRTKASVHTLSGHTNAVATVRCQAAEPQIITGSHDTTIRLWDLVAGKTRVTLTNHKKSVRAVVLHPRHYTFASGSPDNIKQWKFPDGSFIQNLSGHNAIINTLTVNSDGVLVSGADNGTMHLWDWRTGYNFQRVHAAVQPGSLDSESGIFACAFDQSESRLLTAEADKTIKVYREDDTATEETHPVSWKPEIIKRKRF
